{"source": "patent US20240002467A1", "about": "“COMPOSITIONS AND METHODS OF INHIBITING THE BINDING OF PLASMA IGG AUTOANTIBODIES TO SEROTONIN 2A RECEPTOR” (UNITED STATES GOVERNMENT AS REPRESENTED BY THE DEPARTMENT …, priority 2020, published 2024)", "tested_on": "Zucker diabetic fatty rats", "test": "Plasma triglycerides after chronic IP treatment of ZDF rats", "assay_type": "in vivo, rat", "details": "47% vs 18%", "note": "At least one peptide structure holds a part that was inferred or is arguable (an end, a ring closure or a residue). Ends that are not written are not given here.", "data": [{"sequence": "SCLLADDN [decoy peptide 2]", "values": [{"measurement": "fold greater reduction in plasma triglyceride level than omega 3 fish oil EPA in humans", "result": 2.6, "unit": "fold"}]}]}
